Laboratory results from patent US10238713B2 (LODZ UNIVERSITY OF TECHNOLOGY, priority 2010, dated 2019).
Non-standard residues stand in square brackets, D forms with d. *: point of attachment. β3hF = N[C@H](CC(=O)O)Cc1ccccc1; tBu = CC(C)(C)*

Assay: general procedure: Fmoc solid-phase peptide synthesis; Wang resin; 2-Cl-trityl resin; HBTU or TBTU / DIPEA; cyclisation with PyBOP/HOAt/2,4,6-collidine
[1] = whole synthesis, 214 nm, scale of the general procedure 0.2 mmol

Row | Substance | final HPLC purity (cyclisation step, HPLC (Vydac C18, 214 nm)) | cyclisation yield (cyclisation step, on linear precursor) | final HPLC purity [1]
1 | cyclo(PP[β3hF]F) | 99% | 27% | –
2 | cyclo(PP[β3hF]W) (SMILES O=C1C[C@H](Cc2ccccc2)NC(=O)[C@@H]2CCCN2C(=O)[C@@H]2CCCN2C(=O)[C@H](Cc2c[nH]c3ccccc23)N1) | – | – | 99.47%
3 | cyclo(PP[β3hF]Y(tBu)) (SMILES CC(C)(C)Oc1ccc(C[C@@H]2NC(=O)C[C@H](Cc3ccccc3)NC(=O)[C@@H]3CCCN3C(=O)[C@@H]3CCCN3C2=O)cc1) | – | – | 98.43%
4 | cyclo([dP][dP][β3hF]F) (SMILES O=C1C[C@H](Cc2ccccc2)NC(=O)[C@H]2CCCN2C(=O)[C@H]2CCCN2C(=O)[C@H](Cc2ccccc2)N1) | – | – | 97.44%
